According to patent US20130017226A1:
Results are given in words; binding and its absence hold for the method and conditions named. Some results given as binding are weak or reduced against the parent protein; the word gives no strength.

By UniProt entry, the sequences of proteins in these tests, tags left out. Where a name states a change or a piece, a line headed by the entry shows the natural chain unless it says otherwise. Residues count along the entry.
UniProt O43508, residues 94-249: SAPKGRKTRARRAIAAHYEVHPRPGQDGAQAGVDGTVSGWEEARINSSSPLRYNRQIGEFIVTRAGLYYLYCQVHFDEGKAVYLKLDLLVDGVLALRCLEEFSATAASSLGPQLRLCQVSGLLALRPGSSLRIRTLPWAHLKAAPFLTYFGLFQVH
UniProt Q9NP84: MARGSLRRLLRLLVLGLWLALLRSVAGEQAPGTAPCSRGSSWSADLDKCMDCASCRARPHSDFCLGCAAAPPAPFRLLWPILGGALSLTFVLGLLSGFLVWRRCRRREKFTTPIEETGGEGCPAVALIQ

How the values were obtained:
TWEAK [1] = biological target: TWEAK (UniProt O43508); assay: ELISA, ligand coated on plate
TWEAK [2] = biological target: TWEAK (UniProt O43508); assay: binding affinity test (ELISA, FIG. 10)

Substance: TWEAKR-Fc (from UniProt Q9NP84 28-76) (Fc fusion)
- binding (TWEAK [1]): binds
- binding (TWEAK [2]): binds
